Series [1] has as its target T1, RcsB (Escherichia coli str. K-12 substr. MG1655) (UniProt P0DMC7).
T1 sequence (looked up): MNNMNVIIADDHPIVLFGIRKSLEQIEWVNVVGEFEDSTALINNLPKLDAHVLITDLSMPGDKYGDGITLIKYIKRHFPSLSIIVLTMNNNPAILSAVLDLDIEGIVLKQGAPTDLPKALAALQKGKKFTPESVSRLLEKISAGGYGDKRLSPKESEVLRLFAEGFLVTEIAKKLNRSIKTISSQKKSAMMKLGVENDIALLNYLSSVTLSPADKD
Briefly: SEC-MALS. The settings on record: data not shown, phosphorylation state not specified; recombinant protein; residues 1-216; protein details: N-terminal 6xHis (pCA24n, ASKA clone).

The target of series [2] is T1, RcsB (Escherichia coli str. K-12 substr. MG1655). Briefly: SPR. To be noted: data not shown, phosphorylation state not specified; SPR: 10 mM Tris-HCl pH 8.3, 150 mM NaCl, 0.5 mM TCEP, 25 C; recombinant protein; residues 1-216; protein details: N-terminal 6xHis (pCA24n, ASKA clone).

These results are taken from paper PMC5829831, “Structural Basis for DNA Recognition by the Two-Component Response Regulator RcsB” (mBio, 2018).

Negatives hold for the conditions tested. Where a protein sequence is shown, tags need not be part of it.

“TTTAGGAAAAATCTTAGA (double strand) [DNA18 (flhDC RcsAB box)]”: in series [1], the binding result is on record as “no binding”. Consider “TTTAGGAAAAATCTTAGA (double strand) [DNA18, biotinylated]”, for which the binding result in series [2] was “no binding”.
